In PMC9406782:
Results are given in words; binding and its absence hold for the method and conditions named. In cells and extracts the contact can be indirect. Some results given as binding are weak or reduced against the parent protein; the word gives no strength.

Chains of the proteins cited; added tags and fusions are not shown. Residues count along the entry.
UniProt P19022, residues 160-906: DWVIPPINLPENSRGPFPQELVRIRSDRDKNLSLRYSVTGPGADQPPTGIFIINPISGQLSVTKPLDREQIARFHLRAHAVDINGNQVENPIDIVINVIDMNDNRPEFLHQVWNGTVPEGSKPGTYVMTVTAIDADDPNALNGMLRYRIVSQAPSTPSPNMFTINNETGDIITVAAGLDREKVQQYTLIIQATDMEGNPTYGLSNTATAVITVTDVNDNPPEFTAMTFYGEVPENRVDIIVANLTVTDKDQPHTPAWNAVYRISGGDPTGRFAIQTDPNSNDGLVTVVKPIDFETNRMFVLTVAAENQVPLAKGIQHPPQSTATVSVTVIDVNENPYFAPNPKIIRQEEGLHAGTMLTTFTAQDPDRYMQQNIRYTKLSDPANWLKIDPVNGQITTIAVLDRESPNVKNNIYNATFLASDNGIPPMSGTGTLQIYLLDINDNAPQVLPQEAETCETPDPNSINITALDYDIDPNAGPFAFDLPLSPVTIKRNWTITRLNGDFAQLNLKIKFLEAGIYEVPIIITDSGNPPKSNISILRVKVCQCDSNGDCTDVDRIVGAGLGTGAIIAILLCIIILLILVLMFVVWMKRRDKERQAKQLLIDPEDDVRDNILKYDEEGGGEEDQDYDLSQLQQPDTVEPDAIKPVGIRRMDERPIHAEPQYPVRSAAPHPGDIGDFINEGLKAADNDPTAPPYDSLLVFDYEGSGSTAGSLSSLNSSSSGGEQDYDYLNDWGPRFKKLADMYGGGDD
UniProt P35221: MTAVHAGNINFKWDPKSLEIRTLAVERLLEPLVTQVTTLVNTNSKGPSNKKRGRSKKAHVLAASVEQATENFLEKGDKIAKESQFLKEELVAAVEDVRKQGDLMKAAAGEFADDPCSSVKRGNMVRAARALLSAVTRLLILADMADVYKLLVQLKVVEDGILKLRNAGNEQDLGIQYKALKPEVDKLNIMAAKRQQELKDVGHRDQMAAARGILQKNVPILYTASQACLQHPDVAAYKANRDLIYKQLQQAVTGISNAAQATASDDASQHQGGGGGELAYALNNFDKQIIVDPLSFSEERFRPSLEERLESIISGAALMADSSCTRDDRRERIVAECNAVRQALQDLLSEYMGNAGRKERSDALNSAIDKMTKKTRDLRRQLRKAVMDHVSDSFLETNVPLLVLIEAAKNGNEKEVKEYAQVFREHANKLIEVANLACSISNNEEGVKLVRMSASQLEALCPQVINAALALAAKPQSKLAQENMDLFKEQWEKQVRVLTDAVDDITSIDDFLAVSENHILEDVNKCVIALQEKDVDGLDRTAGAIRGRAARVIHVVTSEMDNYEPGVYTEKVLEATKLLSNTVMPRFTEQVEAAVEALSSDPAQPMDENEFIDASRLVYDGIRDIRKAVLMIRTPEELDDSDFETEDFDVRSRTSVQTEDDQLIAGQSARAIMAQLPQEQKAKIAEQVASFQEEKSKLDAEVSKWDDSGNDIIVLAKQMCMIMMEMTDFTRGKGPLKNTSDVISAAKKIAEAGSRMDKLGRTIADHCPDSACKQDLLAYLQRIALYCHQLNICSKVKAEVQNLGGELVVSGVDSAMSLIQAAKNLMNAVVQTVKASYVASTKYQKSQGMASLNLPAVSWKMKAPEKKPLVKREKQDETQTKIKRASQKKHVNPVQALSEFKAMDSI
UniProt P35222: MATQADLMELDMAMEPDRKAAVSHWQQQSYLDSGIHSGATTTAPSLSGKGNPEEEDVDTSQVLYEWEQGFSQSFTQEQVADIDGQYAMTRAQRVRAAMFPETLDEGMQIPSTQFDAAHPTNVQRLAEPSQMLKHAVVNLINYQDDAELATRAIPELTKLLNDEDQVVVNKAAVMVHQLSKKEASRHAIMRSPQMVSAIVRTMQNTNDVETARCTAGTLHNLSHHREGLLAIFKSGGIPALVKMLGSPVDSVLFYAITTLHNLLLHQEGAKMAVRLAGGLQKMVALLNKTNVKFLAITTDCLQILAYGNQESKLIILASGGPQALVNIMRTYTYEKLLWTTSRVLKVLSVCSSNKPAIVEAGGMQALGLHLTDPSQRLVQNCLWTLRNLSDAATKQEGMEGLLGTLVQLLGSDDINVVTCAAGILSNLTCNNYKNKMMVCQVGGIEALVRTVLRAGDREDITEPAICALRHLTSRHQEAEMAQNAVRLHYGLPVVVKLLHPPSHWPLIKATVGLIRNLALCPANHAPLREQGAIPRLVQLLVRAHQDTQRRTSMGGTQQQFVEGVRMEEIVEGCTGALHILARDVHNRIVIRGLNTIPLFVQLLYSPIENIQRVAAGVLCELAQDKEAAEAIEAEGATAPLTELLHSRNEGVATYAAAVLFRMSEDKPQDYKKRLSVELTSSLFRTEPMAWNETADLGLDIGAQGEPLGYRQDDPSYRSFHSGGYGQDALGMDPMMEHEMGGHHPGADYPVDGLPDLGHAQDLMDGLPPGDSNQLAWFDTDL

Molecular target: N-cadherin (human (endogenous in PLC cells and in human HCC tissue)) (UniProt P19022)
Assay: co-IP; whole-cell lysates of PLC cells; 1% Triton X-100, RIPA or Empigen immunoprecipitation buffers (150 mM NaCl, 5 mM EDTA or 0.5 mM CaCl2); antibodies against E- or N-cadherin on protein G/A magnetic beads, 4 °C overnight; SDS-PAGE and immunoblot; unrelated mouse myeloma IgG1 as control

Substance: α-catenin (from UniProt P35221 1-906)
- binding: binds

Substance: β-catenin (from UniProt P35222 1-781)
- binding: binds
